{
  "source": "patent US8088387B2",
  "about": "“Method of targeting specific cell populations using cell-binding agent maytansinoid conjugates linked via a non-cleavable linker, said conjugates, and methods of making said conjugates” (Immunogen Inc., priority 2003, dated 2012)",
  "molecules": {"B1": {"name": "huC242-SPP-DM1: huC242 DM1 conjugate with relatively labile cleavable disulfide linker SPP (conjugate, chains of the INN, looked up)", "VH": "QVQLVQSGAEVKKPGETVKISCKASDYTFTYYGMNWVKQAPGQGLKWMGWIDTTTGEPTYAQKFQGRIAFSLETSASTAYLQIKSLKSEDTATYFCARRGPYNWYFDVWGQGTTVTVSS", "VL": "DIVMTQSPLSVPVTPGEPVSISCRSSKSLLHSNGNTYLYWFLQRPGQSPQLLIYRMSNLVSGVPDRFSGSGSGTAFTLRISRVEAEDVGVYYCLQHLEYPFTFGPGTKLELK", "modifications": "DM1 via SPP disulfide linker"}, "B2": {"name": "huC242-SMCC-DM1: huC242 antibody linked to maytansinoid DM1 via the non-cleavable linker SMCC (conjugate, chains of the INN, looked up)", "VH": "QVQLVQSGAEVKKPGETVKISCKASDYTFTYYGMNWVKQAPGQGLKWMGWIDTTTGEPTYAQKFQGRIAFSLETSASTAYLQIKSLKSEDTATYFCARRGPYNWYFDVWGQGTTVTVSS", "VL": "DIVMTQSPLSVPVTPGEPVSISCRSSKSLLHSNGNTYLYWFLQRPGQSPQLLIYRMSNLVSGVPDRFSGSGSGTAFTLRISRVEAEDVGVYYCLQHLEYPFTFGPGTKLELK", "modifications": "DM1 via SMCC linker"}},
  "tested_on": "COLO205 cells",
  "assay": "cell cycle arrest by flow cytometry",
  "assay_type": "cell-based, human",
  "experimental": "Maytansinoid conjugates are thought to impart their cell destroying activity through the inhibition of microtubule polymerization. This inhibition of microtubule polymerization leads to an arrest of the cell cycle principally at G2/M. The antigen-dependent arrest of cells at G2/M by antibody-maytansinoid conjugates can be monitored by flow cytometry analysis (FIG. 13). Treatment of COLO205 cells with huC242-SPP-DM1 or huC242-SMCC-DM1 conjugate results in a complete G2/M arrest by 6-10 hours. […] The difference in the durability of the activity of these two conjugates is also reflected in percentage of dead cells at the 30 hour time point, as judged by a dye exclusion assay using trypan blue.",
  "note": "Some of these results come from one statement about several compounds together.",
  "data": [
    {"molecule": "B1", "values": [
      {"measurement": "time to complete G2/M arrest", "value": "6 to 10", "unit": "h"}
    ]},
    {"molecule": "B2", "values": [
      {"measurement": "time to complete G2/M arrest", "value": "6 to 10", "unit": "h"}
    ]}
  ]
}
